Where two headings read alike, the source gives them in different places. No constants are given. Whether binding was seen depends on the method and setting. In cells and extracts the contact can be indirect. Here binding means that the protein was enriched with, or labelled near, the bait; the list need not be complete.
T1: insulin inhibitory receptor (inceptor) (mouse (endogenous in testis)) (UniProt A2AFS3)
T1 sequence: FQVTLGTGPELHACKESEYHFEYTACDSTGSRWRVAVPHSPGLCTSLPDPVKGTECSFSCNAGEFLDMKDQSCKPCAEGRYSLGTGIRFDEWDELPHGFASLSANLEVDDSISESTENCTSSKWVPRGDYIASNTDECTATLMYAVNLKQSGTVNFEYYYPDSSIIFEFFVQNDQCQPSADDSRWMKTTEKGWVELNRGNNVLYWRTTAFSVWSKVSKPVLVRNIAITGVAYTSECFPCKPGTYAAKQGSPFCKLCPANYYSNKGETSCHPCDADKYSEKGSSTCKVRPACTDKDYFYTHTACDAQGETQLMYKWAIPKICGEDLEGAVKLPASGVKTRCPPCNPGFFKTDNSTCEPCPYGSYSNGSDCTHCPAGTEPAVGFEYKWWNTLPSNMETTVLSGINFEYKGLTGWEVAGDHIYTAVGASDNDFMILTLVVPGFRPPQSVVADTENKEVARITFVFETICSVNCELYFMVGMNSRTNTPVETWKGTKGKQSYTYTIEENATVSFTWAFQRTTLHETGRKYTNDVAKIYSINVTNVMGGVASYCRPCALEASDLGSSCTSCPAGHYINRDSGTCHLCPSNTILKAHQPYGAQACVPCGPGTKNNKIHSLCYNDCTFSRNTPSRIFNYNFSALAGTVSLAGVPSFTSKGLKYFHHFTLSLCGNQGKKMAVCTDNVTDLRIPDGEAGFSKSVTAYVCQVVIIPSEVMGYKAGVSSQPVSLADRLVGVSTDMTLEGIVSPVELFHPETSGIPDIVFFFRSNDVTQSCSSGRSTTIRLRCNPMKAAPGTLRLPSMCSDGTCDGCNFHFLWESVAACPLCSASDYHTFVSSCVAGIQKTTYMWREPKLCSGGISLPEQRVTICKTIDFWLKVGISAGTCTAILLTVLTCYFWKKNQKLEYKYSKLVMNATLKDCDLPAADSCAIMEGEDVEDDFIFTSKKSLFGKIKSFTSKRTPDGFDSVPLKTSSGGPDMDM

Amino acid sequences for entries named in this document (tags omitted). A change or cut given only in a name is not applied to a line headed by its entry.
UniProt P14873: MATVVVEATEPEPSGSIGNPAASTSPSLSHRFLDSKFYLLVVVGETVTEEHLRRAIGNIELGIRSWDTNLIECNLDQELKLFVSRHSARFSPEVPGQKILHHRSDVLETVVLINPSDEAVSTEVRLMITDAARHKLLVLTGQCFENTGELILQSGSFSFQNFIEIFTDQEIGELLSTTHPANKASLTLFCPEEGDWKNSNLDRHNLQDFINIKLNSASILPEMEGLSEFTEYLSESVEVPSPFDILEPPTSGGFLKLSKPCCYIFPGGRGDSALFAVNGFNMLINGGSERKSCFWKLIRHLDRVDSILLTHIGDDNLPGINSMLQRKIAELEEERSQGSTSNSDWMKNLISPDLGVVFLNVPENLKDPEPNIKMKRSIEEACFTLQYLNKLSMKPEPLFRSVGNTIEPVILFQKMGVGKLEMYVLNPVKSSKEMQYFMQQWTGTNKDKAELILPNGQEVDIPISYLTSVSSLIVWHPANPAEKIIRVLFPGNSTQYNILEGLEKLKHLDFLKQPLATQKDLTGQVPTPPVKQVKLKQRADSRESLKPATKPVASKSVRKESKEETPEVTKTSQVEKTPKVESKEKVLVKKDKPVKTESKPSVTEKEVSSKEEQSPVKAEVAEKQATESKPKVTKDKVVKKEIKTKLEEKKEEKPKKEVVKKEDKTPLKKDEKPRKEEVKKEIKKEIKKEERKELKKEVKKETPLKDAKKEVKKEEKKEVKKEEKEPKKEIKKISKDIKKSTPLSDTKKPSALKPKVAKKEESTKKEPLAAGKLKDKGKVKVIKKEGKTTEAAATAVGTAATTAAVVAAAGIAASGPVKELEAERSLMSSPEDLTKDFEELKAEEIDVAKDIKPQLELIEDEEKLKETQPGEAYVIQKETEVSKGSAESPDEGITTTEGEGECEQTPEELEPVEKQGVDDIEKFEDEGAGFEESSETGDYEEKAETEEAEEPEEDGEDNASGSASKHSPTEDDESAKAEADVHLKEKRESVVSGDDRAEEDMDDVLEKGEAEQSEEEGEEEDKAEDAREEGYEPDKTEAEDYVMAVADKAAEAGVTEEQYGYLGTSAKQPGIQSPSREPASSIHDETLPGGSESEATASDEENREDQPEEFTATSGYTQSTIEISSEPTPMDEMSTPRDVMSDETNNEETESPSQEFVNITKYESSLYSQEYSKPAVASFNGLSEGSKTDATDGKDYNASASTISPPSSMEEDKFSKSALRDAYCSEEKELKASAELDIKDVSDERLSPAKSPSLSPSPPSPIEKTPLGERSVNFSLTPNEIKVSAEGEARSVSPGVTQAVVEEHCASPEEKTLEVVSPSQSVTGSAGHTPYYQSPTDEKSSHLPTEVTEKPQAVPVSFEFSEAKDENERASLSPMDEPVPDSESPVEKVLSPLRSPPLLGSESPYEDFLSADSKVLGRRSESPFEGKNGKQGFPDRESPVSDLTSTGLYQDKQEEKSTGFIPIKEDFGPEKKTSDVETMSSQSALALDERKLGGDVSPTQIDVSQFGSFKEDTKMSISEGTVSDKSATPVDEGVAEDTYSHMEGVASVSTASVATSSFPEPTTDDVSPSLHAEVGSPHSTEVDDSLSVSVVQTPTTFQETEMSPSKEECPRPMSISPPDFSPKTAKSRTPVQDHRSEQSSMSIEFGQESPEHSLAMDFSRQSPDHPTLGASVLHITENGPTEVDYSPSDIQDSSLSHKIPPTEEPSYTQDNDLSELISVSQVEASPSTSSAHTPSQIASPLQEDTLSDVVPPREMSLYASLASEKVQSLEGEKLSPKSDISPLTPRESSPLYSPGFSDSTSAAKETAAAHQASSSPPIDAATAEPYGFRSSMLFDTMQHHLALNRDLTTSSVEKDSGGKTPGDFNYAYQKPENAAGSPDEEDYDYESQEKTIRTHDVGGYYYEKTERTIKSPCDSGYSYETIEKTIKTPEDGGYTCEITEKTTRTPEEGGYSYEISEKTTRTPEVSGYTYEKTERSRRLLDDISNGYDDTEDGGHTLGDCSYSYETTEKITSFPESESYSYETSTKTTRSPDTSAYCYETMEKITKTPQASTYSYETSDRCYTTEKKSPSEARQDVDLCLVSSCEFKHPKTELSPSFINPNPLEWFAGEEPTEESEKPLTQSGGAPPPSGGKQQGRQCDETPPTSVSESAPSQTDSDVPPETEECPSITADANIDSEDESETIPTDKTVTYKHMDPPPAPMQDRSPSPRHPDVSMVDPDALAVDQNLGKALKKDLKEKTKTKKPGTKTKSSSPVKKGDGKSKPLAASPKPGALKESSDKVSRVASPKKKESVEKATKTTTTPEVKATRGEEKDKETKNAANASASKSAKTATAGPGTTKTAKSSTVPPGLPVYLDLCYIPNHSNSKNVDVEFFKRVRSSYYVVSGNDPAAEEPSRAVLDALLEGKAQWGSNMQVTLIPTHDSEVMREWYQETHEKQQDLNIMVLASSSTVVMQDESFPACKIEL
UniProt Q9WUU7: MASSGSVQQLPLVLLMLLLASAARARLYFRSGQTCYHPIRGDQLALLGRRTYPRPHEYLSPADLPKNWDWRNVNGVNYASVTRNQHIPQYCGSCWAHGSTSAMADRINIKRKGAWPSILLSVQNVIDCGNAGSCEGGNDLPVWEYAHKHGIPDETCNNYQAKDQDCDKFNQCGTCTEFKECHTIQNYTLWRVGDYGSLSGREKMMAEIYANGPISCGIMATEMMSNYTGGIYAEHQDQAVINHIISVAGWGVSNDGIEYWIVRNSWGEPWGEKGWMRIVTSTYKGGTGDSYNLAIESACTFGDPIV

B1: Lysozyme-like 4 (LYZL4) (protein, UniProt Q9D925 20-145)
chain: SILGRCTVAKMLYDGGLNYFEGYSLENWVCLAYFESKFNPSAVYEDPQDGSTGFGLFQIRDNEWCGHGKNLCSVSCTALLNPNLKDTIQCAKKIVKGKHGMGAWPIWSKNCQLSDVLDRWLDGCDL
B2: adaptor protein 3 μ2 subunit (AP3M2) (protein, UniProt Q8R2R9 1-418)
chain: MIHSLFLINSSGDIFLEKHWKSVVSRSVCDYFFEAQERATEAENVPPVIPTPHHYLLSVYRHKIFFVAVIQTEVPPLFVIEFLHRVVDTFQDYFGVCSEPVIKDNVVVVYEVLEEMLDNGFPLATESNILKELIKPPTILRTVVNTITGSTNVGDQLPTGQLSVVPWRRTGVKYTNNEAYFDVVEEIDAIIDKSGSTVTAEIQGVIDACVKLTGMPDLTLSFMNPRLLDDVSFHPCVRFKRWESERILSFIPPDGNFRLLAYHVSAQNLVAIPVYVKHSISFRDSSSLGRFEITVGPKQTMGKTIEGVIVTSQMPKGVLNMSLTPSQGTHTFDPVTKMLSWDVGKINPQKLPSLKGTMGLQVGASKPDENPTINLQFKIQQLAISGLKVNRLDMYGEKYKPFKGIKYMTKAGKFQVRT

What was measured:
[1] = target: T1, insulin inhibitory receptor (inceptor) (mouse (endogenous in testis)); test: affinity purification with mass spectrometry; anti-inceptor antibody 2G6 (isotype control 11A7) on protein G SureBeads; mouse testis homogenate in 125 mM KCl, 10 mM EDTA, 20 mM HEPES pH 7.2, supernatant with 1% NP-40 alternative; eluted at 60°C
[2] = target: T1, insulin inhibitory receptor (inceptor) (mouse (endogenous in testis)); test: as above; remark: listed apart in the source

Row | Molecule | binding [1] | binding [2]
1 | microtubule-associated protein 1B (MAP1B) (from UniProt P14873 1-2464) | binds | 
2 | cathepsin Z (from UniProt Q9WUU7) (enzyme) | binds | 
3 | B1 |  | binds
4 | B2 |  | binds

From publication PMC10483240
